Measured values reported in publication PMC5101352.

Chains of the proteins cited; added tags and fusions are not shown.
UniProt P0ABA0: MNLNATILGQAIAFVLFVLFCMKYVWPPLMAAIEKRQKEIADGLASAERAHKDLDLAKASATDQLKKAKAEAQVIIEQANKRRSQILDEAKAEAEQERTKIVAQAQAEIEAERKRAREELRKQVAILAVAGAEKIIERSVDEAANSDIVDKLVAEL

Target: C-terminally FLAG-tagged YbeY expressed from the chromosome (E. coli) (UniProt P0A898)
Test: affinity purification with mass spectrometry; C-terminally FLAG-tagged YbeY from the chromosome of E. coli MC4100; lysate on M2 anti-FLAG Sepharose beads, 4°C, 3 h; SDS-PAGE bands identified by MALDI-TOF; untagged strain as control

binding: binds
Substance: ATP synthase subunit B, endogenous (from UniProt P0ABA0 1-156)

Results are given in words; binding and its absence hold for the method and conditions named. In cells and extracts the contact can be indirect. These calls come from enrichment with a bait or labelling near it, and not all partners need be listed.
